# Microarray screen: hit calls

Oligonucleotides screened, 5′ to 3′:
TPP: TPP riboswitch RNA three-way junction, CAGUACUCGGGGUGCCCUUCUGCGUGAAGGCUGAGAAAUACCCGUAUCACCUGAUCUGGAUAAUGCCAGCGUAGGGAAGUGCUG. Hit rate about 0.7% of about 24,000 compounds.
SAM-II: SAM-II riboswitch RNA pseudoknot, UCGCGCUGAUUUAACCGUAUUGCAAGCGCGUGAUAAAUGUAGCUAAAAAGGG. Hit rate about 1% of about 21,000 compounds.
PreQ1: PreQ1 riboswitch RNA pseudoknot, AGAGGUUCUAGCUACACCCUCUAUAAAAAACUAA. From B. subtilis. Hit rate about 0.7% of about 24,000 compounds.

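The test is a small-molecule microarray: each compound is printed twice on a reactive slide, and binding shows as fluorescence of the labelled oligonucleotide after washing. For the PreQ1, TPP and SAM-II riboswitches the laboratory earlier reported (doi:10.1038/s41467-019-09493-3) 1 µM RNA, 2 h, and a rule that included a mean Z-score above 3 (spot signal-to-noise against the whole library), a score well above that on a control array, and duplicate spots agreeing (coefficient of variation under 100). The data file gives only the calls; its cut-offs may differ, and compounds hitting several targets are kept. A missing hit is not proof of no binding, and a hit is not a measured affinity.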 “Y” means called a hit, “N” means screened and not called a hit. Compounds were drawn at random from those tested, without regard to their results. A dash means that no call is listed here.

| structure | TPP | SAM-II | PreQ1 |
|---|---|---|---|
| `CC(C)CCNc1cc(-c2ccccc2)nc2nncn12` | N | - | N |
| `CNCCN1C(=O)CC[C@H]2CN(Cc3cccc4c3OC(C)(C)C4)CC[C@H]21` | N | N | N |
| `CCOc1ccc(NCC(O)CN2c3ccccc3Sc3ccccc32)cc1.O=C(O)C(=O)O` (stereo not drawn) | N | N | N |
| `COc1ccccc1C(CCNCc1ccc(F)cc1)c1ccco1` (stereo not drawn) | N | N | N |
| `C=CCN(Cc1ccc(SC)cc1)C(=O)C1CCNCC1` | N | N | N |
| `Cc1nc(-c2ccc(-c3ccc(C(=O)N4CCc5cc6c(cc54)C4(CCN(C)CC4)CO6)cc3)c(C)c2)no1` | N | N | N |
| `CC(=O)c1ccc(Nc2cc(C)nc3nc(-c4ccc(C)cc4)nn23)cc1` | N | - | N |
| `c1ccc2c(-c3cc(NC4CCNCC4)nc4[nH]ccc34)ccnc2c1` | N | N | N |
| `CCn1c(CN2CC[C@@H]3[C@@H](CCC(=O)N3CCN)C2)nc2ccccc21` | N | N | N |
| `COCc1cc(C)nc2sc3c(=O)n(CCO)c(-c4ccc(OC)cc4)nc3c12` | N | N | N |
| `C#CCOc1ccc(C2C(C#N)=C(N)Oc3cc(O)ccc32)cc1` (stereo not drawn) | N | N | N |
| `CCc1nc(N)sc1C(=O)N1CCC(Sc2ccccc2C)CC1` | N | N | N |
| `Cc1cc(-c2csc(NCc3ccco3)n2)ccc1F` | N | N | N |
| `Cc1cc(C)n(CC2(CNC[C@@H]3CCCN4CCCC[C@H]34)CC2)n1` | N | N | N |
| `Cc1cc(-c2n[nH]c3c2C(c2cccnc2)C(C#N)=C(N)O3)c(C)s1` (stereo not drawn) | N | N | N |
| `Cc1cc(C)n(CCNC2CCN(Cc3ccccc3)CC2)c(=O)n1` | N | N | N |
| `COc1ccccc1-n1nnc(-c2nc(-c3ccc(Cl)cc3)no2)c1N` | N | - | N |
| `COc1ccc(NC(=S)NC2CC(C)(C)NC(C)(C)C2)cc1` | N | N | N |
| `Nc1c(-c2nc3ccccc3[nH]2)nnn1-c1ccc(Cl)cc1` | N | N | N |
| `CN1CCN(C(=O)/C=C/c2ccc([N+](=O)[O-])o2)CC1` | N | N | N |
| `CC(C)c1cc(C(=O)N2CCN(Cc3ccoc3)C(CCO)C2)n(C)n1` (stereo not drawn) | N | N | N |
| `CSc1ccc(CCNc2ncnc3c2nc2n3CCCC2)cc1` | N | - | N |
| `N#CC1=C2CCCCC2(O)NC1=O` (stereo not drawn) | N | N | N |
| `COC(=O)c1ccccc1Nc1c(-c2ccc(OC)c(OC)c2)nc2cnccn12` | N | - | N |
| `C=CCC1(CO)CCCN(C(=O)NCc2cccc(F)c2)C1` (stereo not drawn) | N | N | N |
| `Cc1nc(C2=C(N)N(CCCN3CCCC3=O)CC2=O)sc1C` | N | - | N |
| `Cc1ccc(C(C)CCN2CCC3(CCC(=O)N(CCO)C3)CC2)o1` (stereo not drawn) | N | N | N |
| `Cc1cc(N2CCN(S(=O)(=O)c3cc(F)ccc3C)CC2)nc(NC2CCCCC2)n1` | N | - | N |
| `COc1ccccc1CNc1nc2ccc(C)cc2cc1-c1noc(C)n1` | N | - | N |
| `CCOC(=O)N1CCC(=C2c3ccc(Cl)cc3CCc3cccnc32)CC1` | N | N | N |
| `Cc1ccc(S(=O)(=O)NCC(Nc2ccc(C)cc2C)c2ccccc2)cc1` (stereo not drawn) | N | - | N |
| `Cc1cc2oc(=O)cc(CNCCSc3nnnn3C)c2cc1C` | N | N | N |
| `COc1ccccc1-c1cc2nc(C)cc(NCCCN3CCOCC3)n2n1` | N | - | N |
| `CN(CCO)C(=O)c1c(NC(=O)c2ccccc2)sc2c1CCCC2` | N | N | N |
| `Cn1c(=O)c2c(nc(NCCCO)n2Cc2ccc(F)cc2)n(C)c1=O` | N | N | N |
| `Cc1c(C)n(-c2cccnc2)c2ncnc(NCCO)c12` | N | N | N |
| `Cc1cccc(NC2CCCCC2NS(=O)(=O)c2ccc(Cl)cc2)c1` (stereo not drawn) | N | - | N |
| `CCC1(CO)CCCN(Cc2ccc(F)c(C(F)(F)F)c2)C1` (stereo not drawn) | N | N | N |
| `Cc1ccc2c(C)nc(Nc3nc(O)cc(-c4ccccc4)n3)nc2c1` | N | N | N |
| `O=C(Nc1ccccc1)c1ccc(S(=O)(=O)N2CCCNCC2)cc1` | N | N | N |
| `CNC(=O)[C@@H]1C[C@H](N)CN1CCC1=C(C)CCCC1(C)C` | N | N | N |
| `CSCc1ccc(C(=O)N2C[C@@H](N)C[C@H]2C(=O)O)o1` | N | N | N |
| `CCC(CC)NCCOC(=O)c1ccc([N+](=O)[O-])cc1` | N | N | N |
| `Cc1ccc2[nH]c(CNCc3cc(O)c4cccc(F)c4n3)nc2c1` | N | N | N |
| `COCCN(C)C[C@@H]1CN(C(=O)Cc2c(C)[nH]c3c(F)cccc23)C[C@@H]1CO` | N | N | N |
| `Nc1nc(N2CCOCC2)nc(N(c2ccccc2)c2ccccc2)n1` | N | N | N |
| `CCNC(=O)[C@@H]1C[C@H](N)CN1C(=O)c1ccc2[nH]cnc2c1` | N | N | N |
| `CN1CCC(O)(C(=O)N2CC[C@@H](NC(=O)c3ccncc3)[C@H](O)C2)CC1` | N | N | N |
| `CC(=O)OCC(=O)[C@@]1(O)[C@H](C)C[C@H]2[C@@H]3C=C(C)C4=Cc5c(cnn5-c5ccccc5)C[C@]4(C)[C@@H]3[C@@H](O)C[C@@]21C` | N | N | N |
| `CCN(CC)CCNCc1ccc(-c2ccccc2F)o1` | N | - | N |
| `Nc1c(C(=O)Nc2ccccc2F)sc2ncccc12` | N | N | N |
| `CN(C)CCC=C1c2ccccc2C=Cc2ccccc21` | N | N | N |
| `N#Cc1cccc(N2CCN(CCCc3ccccc3)C(CCO)C2)n1` (stereo not drawn) | N | N | N |
| `CCNc1nc(C)cc(N2CCN(S(=O)(=O)c3ccc(C)c(C)c3)CC2)n1` | N | - | N |
| `CCc1nnc(N2CCC3(CC2)c2ccccc2CC3O)o1` (stereo not drawn) | N | N | N |

Some entries from above, unchanged:

structure,TPP,SAM-II,PreQ1
Cc1cc2oc(=O)cc(CNCCSc3nnnn3C)c2cc1C,N,N,N
CN1CCN(C(=O)/C=C/c2ccc([N+](=O)[O-])o2)CC1,N,N,N
Cc1cccc(NC2CCCCC2NS(=O)(=O)c2ccc(Cl)cc2)c1 (stereo not drawn),N,-,N
CC(C)CCNc1cc(-c2ccccc2)nc2nncn12,N,-,N
CCOC(=O)N1CCC(=C2c3ccc(Cl)cc3CCc3cccnc32)CC1,N,N,N

From ROBIN, a set of small-molecule microarray screens (doi:10.1002/anie.202211358).